The experiment can be described thus: qHTS Assay for Lipid Storage Modulators in Drosophila S3 Cells.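 On cell number change: cells counted by Cell Tracker Red CMTPX staining in the red channel.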 The following applies: BODIPY lipid droplet fluorescence, 18-24 h; for cell number change: measured here: cell count max response, cells fed with added oleic acid. Summed up:
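Drosophila S3 cells loaded with oleic acid (400 uM, as added) and compounds at several concentrations; lipid droplets imaged by 488-nm laser-scanning cytometry, 500–530 nm intensity and object ratio to cell channel. Percent activity normalized to 20 uM Triacsin C.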

Setting [1] is: measured here: lipid fluorescence (Fed channel) AC50, cells fed with added oleic acid.
[2] abbreviates: measured here: cell number channel AC50, cells fed with added oleic acid.

Results on 17 compounds are retold here after PubChem BioAssay AID2685 (National Center for Advancing Translational Sciences (NCATS), 2010).

The structures appear in SMILES notation. This is one part of the list. The main result of the screen is listed elsewhere. These columns were measured beside it and carry no call. Compounds called inactive in the main read-out are mostly missing here. The note in brackets gives the kind of curve behind each potency; many fits are weak.

Regarding `c1ccc(-c2nnc(N3CCN(c4ccccc4)CC3)nc2-c2ccccc2)cc1`, the cell number change is -1.03%. Further, under setting [1], the AC50 was 0.517 µM [falling, full curve, poor fit].

With `COC(=O)c1cc2c(C)[nH]c(C)c2cc(C(=O)OC)c1=O`, the cell number change worked out at 26.1%. For the same compound, the AC50 under setting [1] is 1.46 µM [rising, partial curve, poor fit].

Take `Cc1cc(=O)oc2c(C)c(OCC(=O)N3CCN(C(=O)C4COc5ccccc5O4)CC3)ccc12` (stereo not drawn): the cell number change is -10.6%. Further, the AC50 under setting [1] was 23.1 µM [rising, single point].

On to `CCOC(=O)C(NC(=O)CC)(Nc1ccccc1OC)C(F)(F)F` (stereo not drawn), for which the cell number change was -7.26%. Besides, the AC50 under setting [1] was 3.66 µM [falling, full curve].

Turning to `O=c1oc2ccc(Cl)cc2nc1/C=C(\O)c1cccs1`, the cell number change was -19.6%. Further, under setting [1], the AC50 was 2.31 µM [rising, single point].

Take `COc1ccccc1CC(NC(C)=O)C(=O)N1CCN(C(=O)Nc2ccccc2Cl)CC1` (stereo not drawn): the cell number change is 41.4%. Further, the concentration at half-maximal activity (AC50) under setting [2] was 4.11 µM [rising, partial curve].

With `COc1cccc(CNCc2ccccc2OC)c1`, the cell number change stood at 24.6%.

Turning to `C=CCNc1nc(Nc2ccc([N+](=O)[O-])cc2)nc(OCC)n1`, the cell number change came to 12.2%. Also, under setting [1], the AC50 is 1.03 µM [rising, full curve].

Turning to `COc1cc2c(c(O)c1OC)-c1c(cc(OC)c(OC)c1O)[C@@H](OC(=O)c1ccccc1)[C@@](C)(O)[C@@H](C)[C@@H]2OC(C)=O`, the cell number change was -20.1%. Besides, the AC50 under setting [1] is 16.4 µM [falling, single point].

For the compound `O=C(COC(=O)c1cc(NS(=O)(=O)c2cccs2)ccc1O)Nc1ccccc1`, the cell number change turned out to be 14.6%. Besides, the AC50 under setting [1] was 13 µM [rising, single point].

Regarding `Cc1ccc(C(C)C)c(OCC(=O)N/N=C/c2cccn2C)c1`, the cell number change is -8.32%.

In the case of `CCNC(=S)N1CCN(CCN=CC2=C(O)CC(c3cccs3)CC2=O)CC1` (stereo not drawn), the cell number change amounted to 12.7%. The AC50 under setting [1] is 2.06 µM [falling, partial curve].

As for `CC(C)CCOc1ccc(/C=N/N2C(=O)CSC2=S)cc1`, the cell number change was found to be 85.9%. For the same compound, the half-maximal activity concentration (AC50) under setting [2] is 29.1 µM [rising, single point]. Further, the AC50 under setting [1] is 5.8 µM [rising, partial curve].

Take `N#Cc1cc2c(nc1SCC(N)=O)CCCCC2`: the cell number change was determined as 25.6%. Besides, the AC50 under setting [1] is 5.17 µM [rising, full curve].

For the compound `O=C(CCS(=O)(=O)c1ccccc1)Nc1ccc(-c2nc3ccccc3s2)c(O)c1`, the cell number change was -10.4%.

`COc1ccc(-c2ccc(SCC(=O)NCc3ccco3)nn2)cc1OC`: the cell number change is 8.8%. Also, under setting [2], the AC50 is 0.461 µM [rising, full curve, poor fit].

For `N/C(=N\c1nc(C(F)(F)F)cc(=O)[nH]1)Nc1ccc(Cl)cc1`, the cell number change was -43.7%. Moreover, the AC50 under setting [2] is 16.4 µM [falling, single point]. Besides, the AC50 under setting [1] was 16.4 µM [falling, single point].
